Source: patent US20070072904A1, “PPAR active compounds” (priority 2005, published 2007)
pEC50: −log10 of the molar value. Some entries share one result that the patent states for a list of compounds. At least one compound was matched to its structure with a doubt left.

System: PPARα, PPARγ and PPARδ
Assay: PPAR activity assays: biochemical assay of Example 9 or cell based assay of Example 10, at least one of the PPARs
Details: read-out: EC50 in at least one of PPARα, PPARγ and PPARδ activity assays; either biochemical assay of Example 9 or cell based assay of Example 10; at least one of the PPARs

Compound	pEC50
CCOc1ccc2c(c1)c(CCC(=O)O)cn2S(=O)(=O)c1ccc(-c2ccc(Cl)c(Cl)c2)s1 [Compound P-0485, 3-{1-[5-(3,4-Dichloro-phenyl)-thiophene-2-sulfonyl]-5-ethoxy-1H-indol-3-yl}-propionic acid]	≥ 6.00
Cn1nc(-c2ccc(S(=O)(=O)n3cc(CCC(=O)O)c4ccccc43)s2)cc1C(F)(F)F [Compound P-0007, 3-{1-[5-(1-Methyl-5-trifluoromethyl-1H-pyrazol-3-yl)-thiophene-2-sulfonyl]-1H-indol-3-yl}-propionic acid]	≥ 6.00
CCCCOc1ccc(S(=O)(=O)n2cc(CCC(=O)O)c3cc(-c4ccccc4)ccc32)cc1 [Compound P-0092, 3-[1-(4-Butoxy-benzenesulfonyl)-5-phenyl-1H-indol-3-yl]-propionic acid]	≥ 6.00
O=C(O)CCc1cn(S(=O)(=O)c2ccc(Oc3ccc(Cl)c(Cl)c3)cc2)c2ccc(-c3ccccc3)cc12 [Compound P-0080, 3-{1-[4-(3,4-Dichloro-phenoxy)-benzenesulfonyl]-5-phenyl-1H-indol-3-yl}-propionic acid]	≥ 6.00
O=C(O)CCc1cn(S(=O)(=O)c2ccc(-c3ccco3)s2)c2ccc(Cl)cc12 [Compound P-0405, 3-[5-Chloro-1-(5-furan-2-yl-thiophene-2-sulfonyl)-1H-indol-3-yl]-propionic acid]	≥ 6.00
COc1ccc2c(c1)c(CCC(=O)O)cn2S(=O)(=O)c1cccc(Oc2ccc(C)cc2)c1 [Compound P-0566, 3-[5-Methoxy-1-(3-p-tolyloxy-benzenesulfonyl)-1H-indol-3-yl]-propionic acid]	≥ 6.00
Cc1c(S(=O)(=O)n2cc(CCC(=O)O)c3cc4c(cc32)OCO4)cnn1-c1ccccc1 [Compound P-0361, 3-[5-(5-Methyl-1-phenyl-1H-pyrazole 4-sulfonyl)-5H-[1,3]dioxolo[4,5-f]indol-7-yl]propionic acid]	≥ 6.00
COc1ccc2c(c1)c(CCC(=O)O)cn2S(=O)(=O)c1cc(C)oc1C [Compound P-0159, 3-[1-(2,5-Dimthyyl-furan-3-sulfonyl)-5-methoxy-1H-indol-3-yl]-propionic acid]	≥ 6.00
COc1ccc2c(c1)c(CCC(=O)O)cn2S(=O)(=O)c1ccc(-n2cccn2)cc1 [Compound P-0155, 3-[5-Methoxy-1-(4-pyrazol-1-yl-benzenesulfonyl)-1H-indol-3-yl]-propionic acid]	≥ 6.00
COc1ccc2c(c1)c(CCC(=O)O)cn2S(=O)(=O)c1ccc(-c2ccc(OC(F)(F)F)cc2)s1 [Compound P-0015, 3-{5-Methoxy-1-[5-(4-trifluoromethoxy-phenyl)-thiophene-2-sulfonyl]-1H-indol-3-yl}-propionic acid]	≥ 6.00
COc1ccc(-c2ccc(S(=O)(=O)n3cc(CCC(=O)O)c4cc(OC(C)C)ccc43)cc2)cc1 [Compound P-0322, 3-[5-Isopropoxy-1-(4′-methoxy-biphenyl-4-sulfonyl)-1H-indol-3-yl]-propionic acid]	≥ 6.00
O=C(O)CCc1cn(S(=O)(=O)c2ccc(-c3ccc(C(F)(F)F)cc3)s2)c2ccc(F)cc12 [Compound P-0496, 3-{5-Fluoro-1-[5-(4-trifluoromethyl-phenyl)-thiophene-2-sulfonyl]-1H-indol-3-yl}-propionic acid]	≥ 6.00
Cc1ccccc1S(=O)(=O)n1cc(CCC(=O)O)c2cc(OC(C)C)ccc21 [Compound P-0337, 3-[5-Isopropoxy-1-(toluene-2-sulfonyl)-1H-indol-3-yl]-propionic acid]	≥ 6.00
O=C(O)CCc1cn(S(=O)(=O)c2ccc(-c3cccc(C(F)(F)F)c3)s2)c2ccc(F)cc12 [Compound P-0490, 3-{5-Fluoro-1-[5-(3-trifluoromethyl-phenyl)-thiophene-2-sulfonyl]-1H-indol-3-yl}-propionic acid]	≥ 6.00
COc1ccc2c(c1)c(CCC(=O)O)cn2S(=O)(=O)c1ccc(-c2ccc(OC)c(F)c2)s1 [Compound P-0497, 3-{1-[5-(3Fluoro-4-methoxy-phenyl)-thiophene-2-sulfonyl]-5-methoxy-1H-indol-3-yl}-propionic acid]	≥ 6.00
Cc1nc(-c2ccc(C(F)(F)F)cc2)sc1Cn1cc(CCC(=O)O)c2ccccc21 [Compound P-0039, 3-{1-[4-Methyl-2-(4-trifluoromethyl-phenyl)-thiazol-5-ylmethyl]-1H-indol-3-yl}-propionic acid]	≥ 6.00
COc1ccc2c(c1)c(CCC(=O)O)cn2S(=O)(=O)c1ccc(N2CCOCC2)nc1 [Compound P-0214, 3-[5-Methoxy-1-(6-morpholin-4-yl-pyridine-3-sulfonyl)-1H-indol-3-yl]-propionic acid]	≥ 6.00
COc1ccc2c(c1)c(CCC(=O)O)cn2S(=O)(=O)c1ccc(-c2ccc(Cl)c(C(F)(F)F)c2)s1 [Compound P-0508, 3-{1-[5-(4-Chloro-3-trifluoromethyl-phenyl)-thiophene-2-sulfonyl]-5-methoxy-1H-indol-3-yl}-propionic acid]	≥ 6.00

Compound	pEC50
Cn1nc(-c2ccc(S(=O)(=O)n3cc(CCC(=O)O)c4cc5c(cc43)OCO5)s2)cc1C(F)(F)F [Compound P-0229, 3-{5-[5-(1-Methyl-5-trifluoromethyl-1H-pyrazol-3-yl)-thiophene-2-sulfonyl]-5H-[1,3]dioxolo[4,5f]indol-7-yl}-propionic acid]	≥ 6.00
CCOc1ccc2c(c1)c(CCC(=O)O)cn2S(=O)(=O)c1ccc(Cl)s1 [Compound P-0054, 3-[1-(5-Chloro-thiophene-2-sulfonyl)-5-ethoxy-1H-indol-3-yl]-propionic acid]	≥ 6.00
CCOc1ccc2c(CCC(=O)O)cn(S(=O)(=O)c3cc(C)oc3C)c2c1 [Compound P-0359, 3-[1-(2,5-Dimethyl-furan-3-sulfonyl)-6-ethoxy-1H-indol-3-yl]-propionic acid]	≥ 6.00
Cc1ccc(-c2ccc(S(=O)(=O)n3cc(CCC(=O)O)c4cc(Cl)ccc43)s2)o1 [Compound P-0503, 3-{5-Chloro-1-[5-(5-methyl-furan-2-yl)-thiophene-2-sulfonyl]-1H-indol-3-yl}-propionic acid]	≥ 6.00
COc1ccc2c(c1)c(CCC(=O)O)cn2S(=O)(=O)c1ccc(-c2cc(C(F)(F)F)nn2C)s1 [Compound P-0034, 3-{5-Methoxy-1-[5-(2-methyl-5-trifluoromethyl-2H-pyrazol-3-yl)-thiophene-2-sulfonyl]-1H-indol-3-yl}propionic acid]	≥ 6.00
O=C(O)CCc1cn(S(=O)(=O)c2csc3ccccc23)c2cc3c(cc12)OCO3 [Compound P-0362, 3-[5-(Benzo[b]thiophene-3-sulfonyl)-5H-[1,3]dioxolo[4,5-f]indol-7-yl]-propionic acid]	≥ 6.00
O=C(O)CCc1cn(S(=O)(=O)c2ccc(Cl)c(Cl)c2)c2cc3c(cc12)OCO3 [Compound P-0220, 3-[5-(3,4-Dichloro-benzenesulfonyl)-5H-[1,3]dioxolo[4,5-f]indol-7-yl]-propionic acid]	≥ 6.00
Cc1ccccc1S(=O)(=O)n1cc(CCC(=O)O)c2cc3c(cc21)OCO3 [Compound P-0364, 3-[5-(Toluene-2-sulfonyl)-5H-[1,3]dioxolo[4,5-f]indol-7-yl]-propionic acid]	≥ 6.00
CCOc1ccc2c(c1)c(CCC(=O)O)cn2S(=O)(=O)c1cccc(C(=O)c2ccccn2)c1 [Compound P-0344, 3-{5-Ethoxy-1-[3-(pyridine-2-carbonyl)-benzenesulfonyl]-1H-indol-3-yl}-propionic acid]	≥ 6.00
CC(C)Oc1ccc2c(c1)c(CCC(=O)O)cn2S(=O)(=O)c1ccc(-c2cc(C(F)(F)F)n(C)n2)s1 [Compound P-0326, 3-{5-Isopropoxy-1-[5-(1-methyl-5-trifluoromethyl-1H-pyrazol-3-yl)-thiophene-2-sulfonyl]-1H-indol-3-yl}-propionic acid]	≥ 6.00
COc1ccc(-c2ccc(S(=O)(=O)n3cc(CCC(=O)O)c4cc(Cl)ccc43)s2)cc1F [Compound P-0499, 3-{5-Chloro-1-[5-(3-fluoro-4-methoxy-phenyl)-thiophene-2-sulfonyl]-1H-indol-3-yl}-propionic acid]	≥ 6.00
COc1ccc(-c2ccc(S(=O)(=O)n3cc(CCC(=O)O)c4cc(F)ccc43)s2)cn1 [Compound P-0449, 3-{5-Fluoro-1-[5-(6-methoxy-pyridin-3-yl)-thiophene-2-sulfonyl]-1H-indol-3-yl}-propionic acid]	≥ 6.00
COc1ccc(-c2ccc(S(=O)(=O)n3cc(CCC(=O)O)c4cc(F)ccc43)s2)c(OC)n1 [Compound P-0465, 3-{1-[5-(2,6-Dimethoxy-pyridin-3-yl)-thiophene-2-sulfonyl]-5-fluoro-1H-indol-3-yl}-propionic acid]	≥ 6.00
Cn1nc(-c2ccc(S(=O)(=O)n3cc(CCC(=O)O)c4cc(Cl)ccc43)s2)cc1C(F)(F)F [Compound P-0033, 3-{5-Chloro-1-[5-(1-methyl-5-trifluoromethyl-1H-pyrazol-3-yl)-thiophene-2-sulfonyl]-1H-indol-3-yl}-propionic acid]	≥ 6.00
CCOc1ccc2c(CCC(=O)O)cn(S(=O)(=O)c3ccc(-c4cc(C(F)(F)F)n(C)n4)s3)c2c1 [Compound P-0356, 3-{6-Ethoxy-1-[5-(1-methyl-5-trifluoromethyl-1H-pyrazol-3-yl)-thiophene-2-sulfonyl]-1H-indol-3-yl}-propionic acid]	≥ 6.00
COc1ccc2c(c1)c(CCC(=O)O)cn2S(=O)(=O)c1ccc(-c2ccc(C(F)(F)F)cc2Cl)s1 [Compound P-0515, 3-{1-[5-(2-Chloro-4-trifluoromethyl-phenyl)-thiophene-2-sulfonyl]-5-methoxy-1H-indol-3-yl}-propionic acid]	≥ 6.00
COc1ccc(S(=O)(=O)n2cc(CCC(=O)O)c3cc4c(cc32)OCO4)cc1 [Compound P-0276, 3-[5-(4-Methoxy-benzenesulfonyl)-5H-[1,3]dioxolo[4,5-f]indol-7-yl]-propionic acid]	≥ 6.00
O=C(O)CCc1cn(S(=O)(=O)c2cccc(-c3ccc(C(F)(F)F)cc3)c2)c2ccccc12 [Compound P-0572, 3-[1-(4′-Trifluoromethyl-biphenyl-3-sulfonyl)-1H-indol-3-yl]-propionic acid]	≥ 6.00
